Variants at the background level are over-represented here.
Key:
[1] = test system: biotinyl-Leu-oxazolone; test: self-aminoacylation, catalytic enhancement (BLO) (fold over background); higher = more active; k-Seq, kA / k0A0; sequences stand for … in GGGAAUGGAUCCACAUCUACGAAUUC…UUCACUGCAGACUUGACGAAGCUG
Procedure, shortened: (§1)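 Catalytic enhancement equals the median kA over the uncatalyzed rate, the latter read from the low-activity peak of a bimodal Gaussian fit. Values of kA came from fitting each sequence's fraction reacted to a pseudo-first-order model, with 1000 bootstraps. Reacted RNA was captured with streptavidin and quantified by triplicate qPCR and Illumina sequencing after 90 minutes at room temperature with 2–1250 μM biotinyl-aminoacyl-oxazolone and 0.43 μM mutagenized RNA pools bearing a 21-nt variable region.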

[2] = test system: biotinyl-Trp-oxazolone; test: self-aminoacylation, catalytic enhancement (BWO) (fold over background); higher = more active; k-Seq, kA / k0A0; sequences stand for … in GGGAAUGGAUCCACAUCUACGAAUUC…UUCACUGCAGACUUGACGAAGCUG
Procedure, shortened: as §1

[3] = test system: biotinyl-Val-oxazolone; test: self-aminoacylation, catalytic enhancement (BVO) (fold over background); higher = more active; k-Seq, kA / k0A0; sequences stand for … in GGGAAUGGAUCCACAUCUACGAAUUC…UUCACUGCAGACUUGACGAAGCUG
Procedure, shortened: as §1

[4] = test system: biotinyl-Met-oxazolone; test: self-aminoacylation, catalytic enhancement (BMO) (fold over background); higher = more active; k-Seq, kA / k0A0; sequences stand for … in GGGAAUGGAUCCACAUCUACGAAUUC…UUCACUGCAGACUUGACGAAGCUG
Procedure, shortened: as §1

[5] = test system: biotinyl-Ile-oxazolone; test: self-aminoacylation, catalytic enhancement (BIO) (fold over background); higher = more active; k-Seq, kA / k0A0; sequences stand for … in GGGAAUGGAUCCACAUCUACGAAUUC…UUCACUGCAGACUUGACGAAGCUG
Procedure, shortened: as §1

[6] = test system: biotinyl-Phe-oxazolone; test: self-aminoacylation, catalytic enhancement (BFO) (fold over background); higher = more active; k-Seq, kA / k0A0; sequences stand for … in GGGAAUGGAUCCACAUCUACGAAUUC…UUCACUGCAGACUUGACGAAGCUG
Procedure, shortened: as §1

Row | Sequence | self-aminoacylation [1] | self-aminoacylation [2] | self-aminoacylation [3] | self-aminoacylation [4] | self-aminoacylation [5] | self-aminoacylation [6]
1 | GAGUUUGCUAAUAGACGCAAG [Fam3.1 aminoacylation ribozyme variant] | 0.552 | 1.06 | 0.606 | 0.407 | 0.707 | 0.88
2 | GCACACUUCAAGCAAUCGUUC [Fam1B.1 aminoacylation ribozyme variant] | 0.816 | 1.36 | 1.16 | 0.898 | 1.13 | 1.2
3 | GCCCACUUCAAGCAAUCGGUC [Fam1B.1 aminoacylation ribozyme variant] | 1.77 | 18.7 | 1.67 | 1.27 | 1.42 | 24.1
4 | GUACUUCAAACAAUCGAUCUG [Fam1A.1 aminoacylation ribozyme variant] | 0.862 | 1.64 | 0.987 | 0.863 | 1.18 | 1.72
5 | GUAGUUCAAACAAUCGGUCUG [Fam1A.1 aminoacylation ribozyme variant] | 0.827 | 1.62 | 0.855 | 0.808 | 0.92 | 1.4
6 | GUUACACUGGUCAUCGAGUGA [Fam2.1 aminoacylation ribozyme variant] | 6.76 | 8.81 | 4.18 | 6.79 | 4.91 | 28.9
7 | GUUACCCUGGCCAUCGAGUGA [Fam2.1 aminoacylation ribozyme variant] | 8.07 | 9.03 | 5 | 6.73 | 4.06 | 43.7
8 | GUUACCCUGGUCAUUGAGUGA [Fam2.1 aminoacylation ribozyme variant] | 11 | 13 | 5.29 | 10.2 | 4.72 | 71.3
9 | GUUCACCUAGGUCUUCGGGUG [Fam2.2 aminoacylation ribozyme variant] | 5.73 | 5.22 | 4.05 | 4.89 | 3.83 | 33.8
10 | GUUCACCUAGGUUAUCGGGUG [Fam2.2 aminoacylation ribozyme variant] | 4.08 | 5.35 | 3.44 | 4.84 | 3.41 | 34
11 | UAAUUUGCUAAUAGUCGCAAG [Fam3.1 aminoacylation ribozyme variant] | 1.76 | 2.01 | 1.67 | 1.41 | 1.84 | 2.21
12 | UAGUUUGAUAAUAGUCGCAAG [Fam3.1 aminoacylation ribozyme variant] | 1.41 | 1.42 | 1.17 | 1.56 | 1.6 | 1.41
13 | UAGUUUGCUAAUAGACGCAAG [Fam3.1 aminoacylation ribozyme variant] | 0.478 | 0.544 | 0.943 | 0.704 | 0.937 | 1.09
14 | UAGUUUGCUAAUAGUCUCAAG [Fam3.1 aminoacylation ribozyme variant] | 1.01 | 1.59 | 1.12 | 1.03 | 1.33 | 3.9
15 | UCACACCUCAAGCAAUCGGUC [Fam1B.1 aminoacylation ribozyme variant] | 1.01 | 1.55 | 1.12 | 0.863 | 1 | 1.58
16 | UCACACUUCAAGCAAUCUGUC [Fam1B.1 aminoacylation ribozyme variant] | 0.374 | 0.375 | 0.494 | 0.447 | 0.398 | 0.825
17 | UCUACCCUGGUCAUCGAGUGA [Fam2.1 aminoacylation ribozyme variant] | 9.36 | 12.6 | 5.79 | 10.4 | 5.18 | 14.6
18 | UUACACUUCAAGCAAUCGGUC [Fam1B.1 aminoacylation ribozyme variant] | 1.5 | 15.7 | 1.14 | 1.26 | 1.25 | 30.4
19 | UUACUUCAAACAAGCGGUCUG [Fam1A.1 aminoacylation ribozyme variant] | 1.05 | 1.11 | 0.905 | 1.48 | 1.25 | 6.3
20 | UUACUUCAAACAAUCGAUCUG [Fam1A.1 aminoacylation ribozyme variant] | 0.824 | 0.866 | 0.719 | 0.711 | 0.852 | 1.8
21 | UUACUUCAAACACUCGGUCUG [Fam1A.1 aminoacylation ribozyme variant] | 1.15 | 1.24 | 1.08 | 1.19 | 1.24 | 1.11
22 | UUACUUCAAACAGUCGGUCUG [Fam1A.1 aminoacylation ribozyme variant] | 1.19 | 1.25 | 1.15 | 1.36 | 1.29 | 1.92
23 | UUACUUCAAACCAUCGGUCUG [Fam1A.1 aminoacylation ribozyme variant] | 0.847 | 1.02 | 1.03 | 1.06 | 1.09 | 1.23
24 | UUACUUCAAACGAUCGGUCUG [Fam1A.1 aminoacylation ribozyme variant] | 0.848 | 1.38 | 0.809 | 0.846 | 0.933 | 0.951
25 | UUACUUCACACAAUCGGUCUG [Fam1A.1 aminoacylation ribozyme variant] | 1.17 | 1.03 | 1.28 | 1.06 | 1.27 | 1.66
26 | UUACUUCCAACAAUCGGUCUG [Fam1A.1 aminoacylation ribozyme variant] | 0.947 | 1.12 | 0.981 | 0.999 | 0.943 | 1.09
27 | UUUACCCUGGUCAUCGAGUGG [Fam2.1 aminoacylation ribozyme variant] | 27.3 | 29.3 | 9.95 | 31.5 | 8.85 | 154
28 | UUUCACCUAGGUCACCGGGUG [Fam2.2 aminoacylation ribozyme variant] | 5.2 | 5.47 | 3.87 | 3.77 | 3.8 | 26.7

From the supplement of paper PMC9233669
